Assay results as given in patent US8846873B2, “Antibodies directed to GPNMB and uses thereof” (Celldex Therapeutics, Inc., priority 2004, dated 2014).
Some entries share one result that the patent states for a list of compounds.

Columns and labels:
TK10 = test: Anti GPNMB antibody mediated indirect cell killing (saporin secondary antibody-toxin conjugate, colony count); format: cell-based; conditions: primary antibody 50 ng/mL plus goat anti-human IgG-saporin 100 ng/well
Description: (§1) UACC-62, a GPNMB antigen expressing cell line, and TK10, a non-expressing cell line were plated onto flat bottom 96-well tissue culture plates (Becton Dickinson, Franklin Lakes, N.J., USA) at a density of 3000 cells per well. Once the cells reached ˜25% confluency, 100 ng/well of secondary antibody-toxin conjugate (goat anti-human IgG-saporin; Advanced Targeting Systems, San Diego, USA, HUM-ZAP; cat. # IT-22) was added. Anti-GPNMB MAbs 2.10.2, 2.22.1, 1.15.1 or isotype control mAb (pK16.3) were added to each well at a final concentration of 10 or 50 ng/mL. An anti-EGFR monoclonal antibody (MS-269-PABX, NeoMarkers, Fremont, Calif., USA) was used as a positive primary antibody control. Chemotherapy reagent 5-FU at 600 uM was used as a positive reagent control. On day 5, the cells were trypsinized, transferred to 6-well tissue culture plates and incubated at 37° C. Plates were examined daily and between 8-10 days, all plates were Giemsa stained and colonies were counted.

UACC-62 = test: as above; format: cell-based; conditions: primary antibody 50 ng/mL plus goat anti-human IgG-saporin 100 ng/well
Description: as §1

B1: Mab2.22.1: human anti-GPNMB antibody; VH SEQ ID NO: 164, VL SEQ ID NO: 173 (antibody, listed as Homo sapiens, V domains shown)
VH: QVQLEQSGPGLVKPSQNLSLTCTVSGGSISSGGYFWSWIRQHPGKGLEWIGYIYYSGNTYYNPSLKSRVTISVDTSKNQFSLKLSSVTAADTAVYYCARDYYYDTSGFSYRYDWYYGMDVWGQGTTVTVSSA
VL: DIQLTQSPSSLSASVGDRVTITCRASQGIRNDLGWYQQKPGKAPKRLIYAASSLQNGVPSRFSGSGSGTEFTLTISSLQPEDFATYYCLQHNTYPAFGQGTKVEIKR
B1 was tested, and the “cell death in GPNMB negative TK10 cells” value (TK10) was “less than 5%” and the “killing of UACC-62 cells” value (UACC-62) was “over 70%”.
